Results published in the supplement of paper PMC10849652.
This is one part of the list.

Chains of the proteins cited; added tags and fusions are not shown. Lines headed by an entry give the natural chain unless they say otherwise; changes in a name come on top.
UniProt P17026: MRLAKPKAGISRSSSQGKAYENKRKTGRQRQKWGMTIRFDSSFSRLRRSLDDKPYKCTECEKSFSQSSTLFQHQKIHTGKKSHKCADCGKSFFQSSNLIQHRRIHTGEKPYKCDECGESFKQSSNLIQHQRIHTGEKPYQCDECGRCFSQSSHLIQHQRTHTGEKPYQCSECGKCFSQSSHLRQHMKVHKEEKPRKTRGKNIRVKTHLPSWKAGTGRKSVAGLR
UniProt Q68DK2: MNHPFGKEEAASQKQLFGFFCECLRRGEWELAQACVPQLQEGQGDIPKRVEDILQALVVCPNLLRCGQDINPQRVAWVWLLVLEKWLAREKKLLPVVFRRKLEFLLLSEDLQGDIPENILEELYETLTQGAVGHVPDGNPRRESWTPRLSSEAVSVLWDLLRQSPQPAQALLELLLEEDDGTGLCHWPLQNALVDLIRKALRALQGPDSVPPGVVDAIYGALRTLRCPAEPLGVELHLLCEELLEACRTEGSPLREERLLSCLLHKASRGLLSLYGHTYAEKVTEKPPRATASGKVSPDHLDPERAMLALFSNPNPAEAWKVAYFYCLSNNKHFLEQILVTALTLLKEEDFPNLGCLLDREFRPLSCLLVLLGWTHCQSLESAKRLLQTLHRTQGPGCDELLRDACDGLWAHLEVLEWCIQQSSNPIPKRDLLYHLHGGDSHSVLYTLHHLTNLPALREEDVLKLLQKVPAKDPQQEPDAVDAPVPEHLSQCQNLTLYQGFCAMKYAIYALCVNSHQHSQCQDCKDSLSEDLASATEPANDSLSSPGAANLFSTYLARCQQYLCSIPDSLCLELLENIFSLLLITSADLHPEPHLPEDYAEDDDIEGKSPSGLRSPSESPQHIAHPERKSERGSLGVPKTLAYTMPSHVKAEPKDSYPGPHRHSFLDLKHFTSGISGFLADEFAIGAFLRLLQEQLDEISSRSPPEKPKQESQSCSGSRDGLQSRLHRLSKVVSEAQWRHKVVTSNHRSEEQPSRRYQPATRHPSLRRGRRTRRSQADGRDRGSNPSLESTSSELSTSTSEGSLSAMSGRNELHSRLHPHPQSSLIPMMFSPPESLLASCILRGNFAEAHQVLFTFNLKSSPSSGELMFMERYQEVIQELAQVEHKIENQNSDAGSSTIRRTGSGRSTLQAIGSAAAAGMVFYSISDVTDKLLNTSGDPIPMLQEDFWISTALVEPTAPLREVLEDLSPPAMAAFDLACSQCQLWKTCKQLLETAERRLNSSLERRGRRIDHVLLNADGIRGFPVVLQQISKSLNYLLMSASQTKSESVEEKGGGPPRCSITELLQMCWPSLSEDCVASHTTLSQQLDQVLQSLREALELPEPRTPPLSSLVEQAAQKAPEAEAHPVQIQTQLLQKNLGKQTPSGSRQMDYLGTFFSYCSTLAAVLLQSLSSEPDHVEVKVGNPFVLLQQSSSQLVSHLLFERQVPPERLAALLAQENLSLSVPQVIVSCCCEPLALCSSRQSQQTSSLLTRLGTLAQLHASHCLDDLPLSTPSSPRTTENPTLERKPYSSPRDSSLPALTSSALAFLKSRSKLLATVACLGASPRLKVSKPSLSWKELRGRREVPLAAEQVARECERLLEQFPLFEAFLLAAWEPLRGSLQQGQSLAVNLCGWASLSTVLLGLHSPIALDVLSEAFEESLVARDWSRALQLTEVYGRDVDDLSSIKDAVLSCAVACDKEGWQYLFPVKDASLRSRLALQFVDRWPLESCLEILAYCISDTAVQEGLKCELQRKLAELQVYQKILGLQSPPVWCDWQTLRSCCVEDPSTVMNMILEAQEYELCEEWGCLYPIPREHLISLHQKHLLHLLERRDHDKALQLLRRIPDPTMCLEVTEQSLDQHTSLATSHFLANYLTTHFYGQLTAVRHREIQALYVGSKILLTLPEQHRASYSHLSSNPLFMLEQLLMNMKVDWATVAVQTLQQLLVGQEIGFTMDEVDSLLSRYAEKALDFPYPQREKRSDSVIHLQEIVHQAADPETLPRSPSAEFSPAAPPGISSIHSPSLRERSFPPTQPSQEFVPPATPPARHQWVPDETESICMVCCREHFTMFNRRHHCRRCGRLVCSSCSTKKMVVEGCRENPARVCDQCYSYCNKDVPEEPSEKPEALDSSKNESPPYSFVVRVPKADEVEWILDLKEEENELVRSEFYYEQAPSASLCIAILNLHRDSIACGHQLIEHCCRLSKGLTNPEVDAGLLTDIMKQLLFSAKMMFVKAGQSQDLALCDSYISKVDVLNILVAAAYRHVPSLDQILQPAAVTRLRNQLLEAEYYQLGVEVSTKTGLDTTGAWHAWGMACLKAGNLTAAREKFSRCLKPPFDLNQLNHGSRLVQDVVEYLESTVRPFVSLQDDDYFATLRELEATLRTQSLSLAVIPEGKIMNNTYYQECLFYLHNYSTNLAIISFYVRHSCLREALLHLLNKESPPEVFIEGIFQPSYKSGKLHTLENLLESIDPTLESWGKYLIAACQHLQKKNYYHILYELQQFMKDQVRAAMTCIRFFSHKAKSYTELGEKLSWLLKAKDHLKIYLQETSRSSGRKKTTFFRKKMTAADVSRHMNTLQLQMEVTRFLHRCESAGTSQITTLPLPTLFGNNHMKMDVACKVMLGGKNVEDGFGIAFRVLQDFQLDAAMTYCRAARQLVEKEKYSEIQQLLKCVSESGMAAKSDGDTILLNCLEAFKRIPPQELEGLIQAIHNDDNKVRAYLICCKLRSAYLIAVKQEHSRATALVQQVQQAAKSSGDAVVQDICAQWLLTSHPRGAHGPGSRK
UniProt O43829: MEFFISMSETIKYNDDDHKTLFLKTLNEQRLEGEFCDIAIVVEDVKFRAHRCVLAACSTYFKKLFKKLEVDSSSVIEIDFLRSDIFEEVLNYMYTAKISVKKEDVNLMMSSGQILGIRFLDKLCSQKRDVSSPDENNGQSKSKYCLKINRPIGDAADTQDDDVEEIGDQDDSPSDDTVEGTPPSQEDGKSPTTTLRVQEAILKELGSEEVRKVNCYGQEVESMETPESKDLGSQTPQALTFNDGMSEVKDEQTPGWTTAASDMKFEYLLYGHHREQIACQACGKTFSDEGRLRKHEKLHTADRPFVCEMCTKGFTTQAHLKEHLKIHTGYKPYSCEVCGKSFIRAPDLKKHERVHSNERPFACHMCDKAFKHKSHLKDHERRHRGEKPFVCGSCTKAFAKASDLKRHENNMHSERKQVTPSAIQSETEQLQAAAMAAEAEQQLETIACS
UniProt P47974: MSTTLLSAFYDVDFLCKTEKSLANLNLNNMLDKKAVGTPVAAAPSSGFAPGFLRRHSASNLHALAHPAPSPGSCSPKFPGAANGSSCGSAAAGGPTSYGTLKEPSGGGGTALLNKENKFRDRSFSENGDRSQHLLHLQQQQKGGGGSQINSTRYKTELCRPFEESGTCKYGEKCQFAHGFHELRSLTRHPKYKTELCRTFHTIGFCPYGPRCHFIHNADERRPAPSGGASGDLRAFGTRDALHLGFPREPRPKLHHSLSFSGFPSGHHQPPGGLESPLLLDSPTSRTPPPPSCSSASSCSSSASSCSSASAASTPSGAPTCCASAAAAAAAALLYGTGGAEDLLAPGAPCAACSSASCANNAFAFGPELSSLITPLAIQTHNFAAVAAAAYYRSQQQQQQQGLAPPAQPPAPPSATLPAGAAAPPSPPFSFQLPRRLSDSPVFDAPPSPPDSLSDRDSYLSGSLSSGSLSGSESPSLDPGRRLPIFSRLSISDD
UniProt Q8TBF4: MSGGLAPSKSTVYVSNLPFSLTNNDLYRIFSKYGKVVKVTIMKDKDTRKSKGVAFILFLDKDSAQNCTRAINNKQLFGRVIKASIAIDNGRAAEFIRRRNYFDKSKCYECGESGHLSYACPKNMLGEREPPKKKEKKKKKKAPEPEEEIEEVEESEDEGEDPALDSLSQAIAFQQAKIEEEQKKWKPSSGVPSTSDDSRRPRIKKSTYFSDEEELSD
UniProt P52739: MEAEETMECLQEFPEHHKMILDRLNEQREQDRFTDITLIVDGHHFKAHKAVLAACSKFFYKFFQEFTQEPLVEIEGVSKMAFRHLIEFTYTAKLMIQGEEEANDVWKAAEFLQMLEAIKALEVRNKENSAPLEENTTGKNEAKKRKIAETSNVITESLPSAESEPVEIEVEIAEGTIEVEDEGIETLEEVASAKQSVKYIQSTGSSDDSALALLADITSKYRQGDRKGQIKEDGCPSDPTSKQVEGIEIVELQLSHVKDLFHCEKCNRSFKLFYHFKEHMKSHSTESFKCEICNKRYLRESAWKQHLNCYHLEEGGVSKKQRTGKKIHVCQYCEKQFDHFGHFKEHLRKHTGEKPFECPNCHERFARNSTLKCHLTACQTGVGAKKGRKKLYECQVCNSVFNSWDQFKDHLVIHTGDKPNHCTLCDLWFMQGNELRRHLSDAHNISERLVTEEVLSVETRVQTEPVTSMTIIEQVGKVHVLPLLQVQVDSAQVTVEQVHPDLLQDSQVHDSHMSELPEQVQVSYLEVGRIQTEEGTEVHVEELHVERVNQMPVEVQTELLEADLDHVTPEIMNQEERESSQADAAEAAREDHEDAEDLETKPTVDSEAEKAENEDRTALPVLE
UniProt Q9UBW7: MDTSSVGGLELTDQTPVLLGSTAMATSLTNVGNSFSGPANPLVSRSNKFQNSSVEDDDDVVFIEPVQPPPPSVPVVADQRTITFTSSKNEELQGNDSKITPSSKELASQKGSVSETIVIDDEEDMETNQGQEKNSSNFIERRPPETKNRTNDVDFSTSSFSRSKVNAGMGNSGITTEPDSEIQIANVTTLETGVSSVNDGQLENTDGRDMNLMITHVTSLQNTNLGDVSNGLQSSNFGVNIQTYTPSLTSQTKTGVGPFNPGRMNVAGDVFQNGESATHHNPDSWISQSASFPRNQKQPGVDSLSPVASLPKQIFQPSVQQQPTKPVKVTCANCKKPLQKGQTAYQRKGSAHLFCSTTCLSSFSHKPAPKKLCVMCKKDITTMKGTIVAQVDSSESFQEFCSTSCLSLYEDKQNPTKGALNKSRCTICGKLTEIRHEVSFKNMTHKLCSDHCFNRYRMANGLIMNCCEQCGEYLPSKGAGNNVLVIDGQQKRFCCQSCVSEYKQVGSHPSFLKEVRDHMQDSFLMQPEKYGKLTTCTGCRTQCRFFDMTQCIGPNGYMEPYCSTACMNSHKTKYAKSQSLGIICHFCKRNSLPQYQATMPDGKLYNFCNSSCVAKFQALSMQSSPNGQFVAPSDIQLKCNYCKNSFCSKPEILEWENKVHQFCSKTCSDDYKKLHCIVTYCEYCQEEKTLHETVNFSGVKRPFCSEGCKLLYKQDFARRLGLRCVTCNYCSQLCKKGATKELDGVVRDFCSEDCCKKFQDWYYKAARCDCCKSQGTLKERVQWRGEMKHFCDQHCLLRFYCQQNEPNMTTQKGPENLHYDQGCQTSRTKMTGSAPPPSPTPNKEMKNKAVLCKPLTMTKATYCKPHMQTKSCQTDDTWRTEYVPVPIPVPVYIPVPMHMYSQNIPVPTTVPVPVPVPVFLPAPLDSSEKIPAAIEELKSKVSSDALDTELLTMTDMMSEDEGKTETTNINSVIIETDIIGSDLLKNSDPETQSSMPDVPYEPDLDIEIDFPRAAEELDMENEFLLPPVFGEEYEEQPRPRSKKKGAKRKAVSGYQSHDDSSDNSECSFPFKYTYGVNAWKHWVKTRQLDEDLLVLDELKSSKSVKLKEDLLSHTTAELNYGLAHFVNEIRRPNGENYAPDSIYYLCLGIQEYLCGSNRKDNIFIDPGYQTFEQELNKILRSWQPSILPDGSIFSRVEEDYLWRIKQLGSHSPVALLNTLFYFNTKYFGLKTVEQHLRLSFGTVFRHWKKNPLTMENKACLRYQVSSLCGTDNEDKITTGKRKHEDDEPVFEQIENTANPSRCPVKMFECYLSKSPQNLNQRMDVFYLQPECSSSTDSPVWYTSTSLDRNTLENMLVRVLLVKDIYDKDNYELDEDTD
UniProt P18887, whole entry, looked up: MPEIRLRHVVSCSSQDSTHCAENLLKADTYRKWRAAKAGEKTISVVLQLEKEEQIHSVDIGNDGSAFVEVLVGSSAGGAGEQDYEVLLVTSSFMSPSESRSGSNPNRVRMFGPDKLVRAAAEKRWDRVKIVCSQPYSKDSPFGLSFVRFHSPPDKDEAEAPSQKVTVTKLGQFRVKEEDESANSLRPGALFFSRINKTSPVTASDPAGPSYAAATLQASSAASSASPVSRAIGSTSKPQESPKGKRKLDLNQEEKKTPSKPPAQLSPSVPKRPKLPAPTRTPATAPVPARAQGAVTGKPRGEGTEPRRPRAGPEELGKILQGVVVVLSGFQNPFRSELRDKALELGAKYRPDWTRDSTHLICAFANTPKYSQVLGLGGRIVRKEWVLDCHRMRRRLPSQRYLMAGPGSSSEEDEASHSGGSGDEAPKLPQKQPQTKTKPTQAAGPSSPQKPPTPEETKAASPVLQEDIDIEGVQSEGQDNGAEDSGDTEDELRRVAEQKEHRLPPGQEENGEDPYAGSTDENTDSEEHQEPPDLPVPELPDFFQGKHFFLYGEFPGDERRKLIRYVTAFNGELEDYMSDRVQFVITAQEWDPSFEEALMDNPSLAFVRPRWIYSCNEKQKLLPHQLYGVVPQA

Key:
Test in all cases: log2 fold change, soluble protein after heating vs DMSO (PISA); higher = thermal stabilisation; K562 cells, 10 uM, 30 min; active = over 0.2 and 3.5 SD of the protein, either way, in both replicates (recomputed)
[1] = compound: Cc1cccc(CC(=O)N2CCc3c2ccc(-c2cn(C)c4ncnc(N)c24)c3F)n1
Summary of the method: (§1)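 Thermal stability values are relative to control samples and come from duplicates. They are expressed as log2 fold changes. For measurement, K562 cells (2×10^6 cells/mL) received 10 μM compound for 30 min, and aliquots were heated for 3 min over 48°C-58°C, pooled, and extracted at 4°C in PBS with 0.5% NP-40. Soluble protein, the supernatant after 21,000xg for 90 min, was quantified by TMTpro 16plex LC-MS/MS with equalised channel sums.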

[2] = compound: Cc1cn(-c2cc(NC(=O)c3ccc(C)c(Nc4nccc(-c5cccnc5)n4)c3)cc(C(F)(F)F)c2)cn1 [nilotinib]
Summary of the method: as §1

[3] = compound: Cc1nc(Nc2n[nH]c3c2CN(C(=O)N[C@H](CN(C)C)c2ccccc2)C3(C)C)c2sccc2n1
Summary of the method: as §1

[4] = compound: Cc1ncc(-c2ccnc(Nc3ccc(S(C)(=O)=O)cc3)n2)n1C(C)C
Summary of the method: as §1

[5] = compound: Cn1cc(-c2ccc3nnc(C(F)(F)c4ccc5ncccc5c4)n3n2)cn1
Summary of the method: as §1

[6] = compound: Cn1cncc1[C@@](N)(c1ccc(Cl)cc1)c1ccc2c(c1)c(-c1cccc(Cl)c1)cc(=O)n2C [tipifarnib]
Summary of the method: as §1

[7] = compound: Cc1nc(Nc2ncc(C(=O)Nc3c(C)cccc3Cl)s2)cc(N2CCN(CCO)CC2)n1 [dasatinib]
Summary of the method: as §1

[8] = compound: Cn1cc(-c2ccc3c(c2)CCN3C(=O)Cc2cccc(C(F)(F)F)c2)c2c(N)ncnc21
Summary of the method: as §1

[9] = compound: FC(F)(F)c1ccc(/C=C/c2nc(COc3ccc(CCCCn4ccnn4)cc3)co2)cc1 [mubritinib]
Summary of the method: as §1

[10] = compound: Cc1ccc(NC(=O)c2ccc(CN3CC[C@H](N(C)C)C3)c(C(F)(F)F)c2)cc1Nc1nccc(-c2cncnc2)n1 [bafetinib]
Summary of the method: as §1

Measured: log2 fold change

XPA (UniProt P23025)
inactive: [1] 0.044 | [2] 0.085 | [3] -0.051 | [4] -0.088 | [5] 0.075 | [6] 0.036

XRCC2 (UniProt O43543)
inactive: [2] -0.444 | [3] 0.082 | [7] -0.009 | [4] 0.015 | [8] 0.091 | [6] -0.056 | [9] 0.086

XYLT2 (UniProt Q9H1B5)
inactive: [8] 0.149

ZKSCAN4 (UniProt Q969J2)
inactive: [8] -0.091 | [5] 0.067

ZNF22 (UniProt P17026)
inactive: [7] 0.019 | [8] -0.46 | [5] -0.211

ZC3H7B (UniProt Q9UGR2)
inactive: [1] -0.252 | [7] 0.21 | [8] -0.523 | [5] -0.254 | [9] 0.044

ZKSCAN3 (UniProt Q9BRR0)
inactive: [8] -0.15

ZFYVE26 (UniProt Q68DK2)
inactive: [8] -0.045

ZDHHC16 (UniProt Q969W1)
inactive: [2] 0.047 | [3] 0.002 | [4] -0.042

ZDHHC12 isoform 3 (UniProt Q96GR4)
inactive: [7] 0.118 | [6] -0.05

YBEY (UniProt P58557)
inactive: [1] 0.276 | [5] 0.313

ZBTB14 (UniProt O43829)
inactive: [10] -0.25 | [8] -0.19 | [5] -0.063 | [9] -0.038

ZFP36L2 (UniProt P47974)
inactive: [9] 0.099

XPC (UniProt Q01831)
inactive: [8] -0.024 | [5] 0.271 | [6] -0.268

ZBTB24 (UniProt O43167)
inactive: [1] -0.118 | [7] 0.063 | [8] -0.411 | [5] -0.441 | [6] 0.091

ZBTB33 (UniProt Q86T24)
inactive: [7] -0.024

ZCRB1 (UniProt Q8TBF4)
inactive: [1] 0.012 | [6] 0.015

YIPF1 (UniProt Q9Y548)
inactive: [10] -0.122 | [2] 0 | [3] 0.121 | [4] -0.032 | [8] -0.129 | [6] -0.007 | [9] 0.036

ZNF131 (UniProt P52739)
inactive: [10] -0.112 | [5] 0.036

ZMYM2 (UniProt Q9UBW7)
inactive: [10] -0.2 | [7] 0.083 | [6] -0.147

ZDHHC7 isoform 2 (UniProt Q9NXF8)
inactive: [1] -0.06 | [2] 0.104 | [3] 0.046 | [7] -0.063 | [4] 0.059 | [8] -0.088 | [5] 0.091 | [6] -0.047

ZKSCAN8 (UniProt Q15776)
inactive: [1] 0.117 | [7] -0.196 | [5] -0.029 | [6] 0.181

ZFC3H1 (UniProt O60293)
inactive: [10] -0.142 | [2] 0.031 | [3] -0.005 | [4] 0.202 | [5] 0.052 | [9] -0.171

ZFPM2 (UniProt Q8WW38)
inactive: [8] 0.01 | [9] -0.198

ZG16B (UniProt Q96DA0)
inactive: [10] 0.859 | [6] -0.706 | [9] 0.231

ZBTB17 isoform 2 (UniProt Q13105)
inactive: [10] 0.07 | [9] -0.131

YWHAZ (UniProt E7ESK7)
inactive: [10] -0.131 | [7] -0.094 | [8] 0.102 | [5] -0.007 | [6] 0.127 | [9] 0.11

ZDHHC13 (UniProt Q8IUH4)
inactive: [8] -0.067 | [5] -0.021

ZDHHC4 (UniProt Q9NPG8)
inactive: [10] 0.02 | [6] -0.026 | [9] -0.005

ZDHHC6 (UniProt Q9H6R6)
inactive: [1] 0.097 | [6] 0.086

Two successive records out of the list so far, for reference:
ZDHHC13 (UniProt Q8IUH4)
inactive: [8] -0.067 | [5] -0.021

ZDHHC4 (UniProt Q9NPG8)
inactive: [10] 0.02 | [6] -0.026 | [9] -0.005

(next part)

ZMYND8 isoform 19 (UniProt Q9ULU4)
inactive: [10] 0.088 | [7] -0.003 | [8] -0.044 | [6] -0.063

XRCC1 (UniProt P18887)
inactive: [1] 0.019 | [7] 0 | [8] 0.123 | [5] 0.063
